{"source": "PubChem BioAssay AID504786 (Drosophila RNAi Screening Center, 2011)", "screen": "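Knock-downs reducing HIF reporter induction by the iron chelator DFO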 (primary screen)", "cell system": "Drosophila S2 cells with a stable HIF luciferase reporter", "reagents": "long dsRNA against Drosophila genes, about 0.2 µg dsRNA per well of a 384-well plate", "timing": "three days of knock-down, then 20 h of DFO before reading", "challenge": "desferrioxamine (DFO) at 100 µM, an iron chelator that mimics hypoxia, for 20 h", "detection": "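Firefly luciferase driven by the mouse ldh-a hypoxia-response element, measured after 20 h of 100 µM DFO; z-scores per plate, higher means more signal lost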", "direction": "z-score: higher = stronger loss of HIF reporter signal", "note": "The screen tested about 21,000 reagents; this is an unselected part of those with a known target gene and a result. 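Primary screen; positive scores mean lost reporter signal, so the sign may be inverted from the usual convention.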 Names joined by + are all predicted targets of the reagent."}
{"Target gene": "hth (GeneID 41273)", "DRSC id": "DRSC16967", "z-score, replicate 1": -0.4, "z-score, replicate 2": -0.5}
{"Target gene": "cysu (GeneID 42100)", "DRSC id": "DRSC15902", "z-score, replicate 1": -0.2, "z-score, replicate 2": 0.1}
{"Target gene": "Dh44-R2 (GeneID 36368)", "DRSC id": "DRSC06141", "z-score, replicate 1": -0.3, "z-score, replicate 2": -0.5}
{"Target gene": "Dh44-R2 (GeneID 36368)", "DRSC id": "DRSC06281", "z-score, replicate 1": 0.1, "z-score, replicate 2": 0.2}
{"Target gene": "Mal-B2 (GeneID 34598)", "DRSC id": "DRSC02417", "z-score, replicate 1": -0.8, "z-score, replicate 2": -0.5}
{"Target gene": "CG8560 (GeneID 38830)", "DRSC id": "DRSC10994", "z-score, replicate 1": -0.4, "z-score, replicate 2": -0.9}
{"Target gene": "Pli (GeneID 42821)", "DRSC id": "DRSC16792", "z-score, replicate 1": -0.1, "z-score, replicate 2": -0.4}
{"Target gene": "ng1 (GeneID 31300)", "DRSC id": "DRSC18802", "z-score, replicate 1": -0.4, "z-score, replicate 2": -0.2}
{"Target gene": "CG7196 (retired record) (GeneID 34057)", "DRSC id": "DRSC01000", "z-score, replicate 1": -0.1, "z-score, replicate 2": -0.2}
{"Target gene": "CG7196 (retired record) (GeneID 34057)", "DRSC id": "DRSC03023", "z-score, replicate 1": 0.1, "z-score, replicate 2": 0.2}
{"Target gene": "CG31407 (GeneID 318716)", "DRSC id": "DRSC12761", "z-score, replicate 1": -0.2, "z-score, replicate 2": -0.1}
{"Target gene": "Afti (GeneID 41744)", "DRSC id": "DRSC16440", "z-score, replicate 1": -0.4, "z-score, replicate 2": -0.6}
{"Target gene": "Mics1 (GeneID 40898)", "DRSC id": "DRSC12537", "z-score, replicate 1": -0.4, "z-score, replicate 2": -0.8}
{"Target gene": "H (GeneID 42445)", "DRSC id": "DRSC16692", "z-score, replicate 1": -0.3, "z-score, replicate 2": -0.1}
{"Target gene": "CheB74a (GeneID 3772073)", "DRSC id": "DRSC09503", "z-score, replicate 1": -0.3, "z-score, replicate 2": -0.2}
{"Target gene": "CG17221 (GeneID 33521)", "DRSC id": "DRSC00487", "z-score, replicate 1": -0.1, "z-score, replicate 2": -0.1}
{"Target gene": "CG7275 (GeneID 39669)", "DRSC id": "DRSC10796", "z-score, replicate 1": 0.1, "z-score, replicate 2": 1.6}

A run of entries from the list above, for reference:
{"Target gene": "Dh44-R2 (GeneID 36368)", "DRSC id": "DRSC06141", "z-score, replicate 1": -0.3, "z-score, replicate 2": -0.5}
{"Target gene": "Dh44-R2 (GeneID 36368)", "DRSC id": "DRSC06281", "z-score, replicate 1": 0.1, "z-score, replicate 2": 0.2}
{"Target gene": "Mal-B2 (GeneID 34598)", "DRSC id": "DRSC02417", "z-score, replicate 1": -0.8, "z-score, replicate 2": -0.5}
{"Target gene": "CG8560 (GeneID 38830)", "DRSC id": "DRSC10994", "z-score, replicate 1": -0.4, "z-score, replicate 2": -0.9}

The listing continues:
{"Target gene": "Ptp4E (GeneID 31425)", "DRSC id": "DRSC18701", "z-score, replicate 1": -0.4, "z-score, replicate 2": -0.2}
{"Target gene": "Obp58c (GeneID 37608)", "DRSC id": "DRSC04166", "z-score, replicate 1": -0.3, "z-score, replicate 2": -0.2}
{"Target gene": "U3-55K (GeneID 3346176)", "DRSC id": "DRSC05982", "z-score, replicate 1": 0.3, "z-score, replicate 2": 0.9}
{"Target gene": "CG5478 (GeneID 41936)", "DRSC id": "DRSC15814", "z-score, replicate 1": -0.3, "z-score, replicate 2": -0.7}
{"Target gene": "CG15199 (GeneID 32051)", "DRSC id": "DRSC19646", "z-score, replicate 1": -0.3, "z-score, replicate 2": -0.5}
{"Target gene": "CG4168 (GeneID 34889)", "DRSC id": "DRSC01446", "z-score, replicate 1": 0, "z-score, replicate 2": 0.1}
{"Target gene": "CG4168 (GeneID 34889)", "DRSC id": "DRSC01447", "z-score, replicate 1": 0.3, "z-score, replicate 2": 0.8}
{"Target gene": "CG4168 (GeneID 34889)", "DRSC id": "DRSC01933", "z-score, replicate 1": -0.3, "z-score, replicate 2": -0.3}
{"Target gene": "mGluR (GeneID 43838)", "DRSC id": "DRSC17215", "z-score, replicate 1": -0.3, "z-score, replicate 2": -0.5}
{"Target gene": "Uggt (GeneID 40055)", "DRSC id": "DRSC11315", "z-score, replicate 1": -0.4, "z-score, replicate 2": -0.7}
{"Target gene": "RpLP1 (GeneID 33214)", "DRSC id": "DRSC00783", "z-score, replicate 1": 3.2, "z-score, replicate 2": 4.8}
{"Target gene": "CG10097 + CG10096", "DRSC id": "DRSC14189", "z-score, replicate 1": -0.3, "z-score, replicate 2": -0.1}
{"Target gene": "CG10097 + CG10096", "DRSC id": "DRSC14190", "z-score, replicate 1": -0.3, "z-score, replicate 2": -0.6}
{"Target gene": "can (GeneID 45432)", "DRSC id": "DRSC10664", "z-score, replicate 1": 0.2, "z-score, replicate 2": -0.3}
{"Target gene": "CG14000 + bchs", "DRSC id": "DRSC02333", "z-score, replicate 1": 3.2, "z-score, replicate 2": 2.4}
{"Target gene": "Tace (GeneID 43558)", "DRSC id": "DRSC16340", "z-score, replicate 1": -0.3, "z-score, replicate 2": 0.5}
{"Target gene": "IleRS (GeneID 45785)", "DRSC id": "DRSC11667", "z-score, replicate 1": -0.2, "z-score, replicate 2": 0}
{"Target gene": "Rap1 (GeneID 38244)", "DRSC id": "DRSC08686", "z-score, replicate 1": -0.1, "z-score, replicate 2": 0.2}
{"Target gene": "HtrA2 (GeneID 41756)", "DRSC id": "DRSC16425", "z-score, replicate 1": -0.1, "z-score, replicate 2": -0.2}
{"Target gene": "Ak6 (GeneID 36379)", "DRSC id": "DRSC07274", "z-score, replicate 1": -0.4, "z-score, replicate 2": -0.8}
{"Target gene": "aurA (GeneID 41446)", "DRSC id": "DRSC16905", "z-score, replicate 1": -0.2, "z-score, replicate 2": 1}
{"Target gene": "CG13862 (GeneID 42610)", "DRSC id": "DRSC14712", "z-score, replicate 1": -0.1, "z-score, replicate 2": 0.3}
{"Target gene": "Sf3b2 (GeneID 33514)", "DRSC id": "DRSC00619", "z-score, replicate 1": 6.6, "z-score, replicate 2": 5.8}
